## Library screening results

From ChEMBL document CHEMBL3988442, “University of Dundee, Small-Polar-MMV Screening Library” (2021).

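Whole-cell assay for inhibitors of Mycobacterium tuberculosis growth, labelled Cornell in the record; the read-out is not stated. The concentration is filed as 10 mM, unlikely as a test dose, so the dose is not known. The record gives no direction; compounds strong in two other growth screens of this library score well above the rest, so higher reads as stronger inhibition. Size under these conditions: about 53,000 compounds, about 900 of them at 50% or above in at least one test.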

Results are given as percent effect. How 0% and 100% were set is not recorded. Most values in the screen are low, and negative values occur. The compounds are a random part of those screened.

CCCc1cc(N2CCC(N[C@H]3CC[C@H](O)CC3)CC2)nc(C)n1 read 3.793%. Cc1cn(CC(=O)NCC(=O)NC2CC2)c2ccccc12 gave -62.19%. Result for Cc1oc(-c2cccc(F)c2F)nc1CN(C)CCC(C)(C)O was 6.003%. CC(C)n1cc(CN2CCCN(C(=O)c3nccnc3N)CC2)cn1 gave 14.34%.

Cc1c(CN2CCOCC2)c(O)n(CCc2ccccc2)c(=O)c1C#N read 66.79%. Result for COCCCC(=O)Nc1cc(Cl)c(Cl)cn1 was 13.58%. For CCn1c(C)cc(C(=O)Nc2ccccc2CN(C)C(C)=O)c1C the result was 10.51%. With O=C(Cc1cccc(F)c1)N1CCc2ncnc(N3CCCC3)c2CC1 the screen gave 35.84%.

For Cc1noc(C)c1CN1CCN(C)c2ncccc2C1.O=C(O)C(F)(F)F.O=C(O)C(F)(F)F the result was 28.55%. Cc1noc(C2CCCN(C(=O)c3ccc(Cl)cc3F)C2)n1 (stereo not shown) read 16.46%. Result for Cc1noc(C2(NC(=O)c3cccnc3O)CCCCC2)n1 was -23.97%. With CCN(CC)Cc1cc(C(=O)N2CC(C)(C)[C@@](C)(O)C2)c(C)o1 the screen gave -5.814%.

For Cc1cccc(CNCC2(O)CCCN(CC3CCCCC3)C2=O)n1 (stereo not shown) the result was 26.31%. Result for NC(=O)C1CN(c2ccc3cc(Br)ccc3n2)CCO1 (stereo not shown) was 21.04%. Result for COCCOc1ncccc1C(=O)N(C)c1ccc(OC)c(OC)c1 was 30.4%. Result for CO[C@@]1(C)C[C@@H](O)C12CCN(C(=O)C1(c3ccccc3F)CC1)CC2 was -44.98%.

Result for [H][C@]12C[C@H](C(=O)NC)N(S(C)(=O)=O)[C@@]1([H])CN(C(=O)c1ccsc1)C2 was 22.75%. For Cc1ccc(CN2CCC3(CC2)NC(=O)CC3c2ccccc2)s1.O=C(O)C(F)(F)F (stereo not shown) the result was 1.118%. For CNc1cc(CNC(=O)c2ccccc2)nc(-c2ccncc2)n1 the result was 29.12%. Result for COc1ccc(CN2CCCC2)cc1Oc1ccc(NC(C)=O)cc1 was -1.795%.

CCC(C)(C)NC(=O)Nc1nnc(-c2ccccn2)s1 read 20.88%. For CC(=O)NCc1ccc(C(=O)N2CCCC2c2cnn(C)c2)o1 (stereo not shown) the result was 18.62%. Result for CCc1ncc2c(n1)CN(Cc1cnc(C)cn1)CC2 was 15.15%. [H][C@]12CN(C(=O)C3CC3)CCN1C[C@H](c1ccccc1)[C@H]2C(=O)OCC read -4.832%.

COc1ncnc2c1CCN(c1cc(C(F)(F)F)ncn1)CC2 read -1.482%. With COCCN1CC[C@]2(CN(C(=O)c3cccs3)C[C@H]2C)C1=O the screen gave 14%. With CCc1noc(C(C)SCCS(C)(=O)=O)n1 (stereo not shown) the screen gave 6.914%. Result for CCCc1ccc2oc(C(=O)N3CCN(CCOC)CC3)c(C)c2c1 was 30.14%.

For CNc1cccc(CC2COCCN(C(=O)c3cccnc3)C2)n1 (stereo not shown) the result was -27.59%. With O=C(NCCNc1ncccn1)C1CCN(CC(F)(F)F)CC1 the screen gave -14.94%.

Some entries from above, unchanged:

{"structure": "CC(=O)NCc1ccc(C(=O)N2CCCC2c2cnn(C)c2)o1", "stereo": "stereo not shown", "percent effect": 18.62}
{"structure": "Cc1oc(-c2cccc(F)c2F)nc1CN(C)CCC(C)(C)O", "percent effect": 6.003}
{"structure": "COc1ccc(CN2CCCC2)cc1Oc1ccc(NC(C)=O)cc1", "percent effect": -1.795}